Assay results reported in article PMC6926483.
No constants are given. Whether binding was seen depends on the method and setting. In cells and extracts the contact can be indirect. Some binding calls cover weakened binding; strength is not graded here. Sequences can lack the tags named with a protein.

Target: T1, HA-GluD1 (glutamate receptor delta-1, wild type) (mouse), Q61627
T1 chain: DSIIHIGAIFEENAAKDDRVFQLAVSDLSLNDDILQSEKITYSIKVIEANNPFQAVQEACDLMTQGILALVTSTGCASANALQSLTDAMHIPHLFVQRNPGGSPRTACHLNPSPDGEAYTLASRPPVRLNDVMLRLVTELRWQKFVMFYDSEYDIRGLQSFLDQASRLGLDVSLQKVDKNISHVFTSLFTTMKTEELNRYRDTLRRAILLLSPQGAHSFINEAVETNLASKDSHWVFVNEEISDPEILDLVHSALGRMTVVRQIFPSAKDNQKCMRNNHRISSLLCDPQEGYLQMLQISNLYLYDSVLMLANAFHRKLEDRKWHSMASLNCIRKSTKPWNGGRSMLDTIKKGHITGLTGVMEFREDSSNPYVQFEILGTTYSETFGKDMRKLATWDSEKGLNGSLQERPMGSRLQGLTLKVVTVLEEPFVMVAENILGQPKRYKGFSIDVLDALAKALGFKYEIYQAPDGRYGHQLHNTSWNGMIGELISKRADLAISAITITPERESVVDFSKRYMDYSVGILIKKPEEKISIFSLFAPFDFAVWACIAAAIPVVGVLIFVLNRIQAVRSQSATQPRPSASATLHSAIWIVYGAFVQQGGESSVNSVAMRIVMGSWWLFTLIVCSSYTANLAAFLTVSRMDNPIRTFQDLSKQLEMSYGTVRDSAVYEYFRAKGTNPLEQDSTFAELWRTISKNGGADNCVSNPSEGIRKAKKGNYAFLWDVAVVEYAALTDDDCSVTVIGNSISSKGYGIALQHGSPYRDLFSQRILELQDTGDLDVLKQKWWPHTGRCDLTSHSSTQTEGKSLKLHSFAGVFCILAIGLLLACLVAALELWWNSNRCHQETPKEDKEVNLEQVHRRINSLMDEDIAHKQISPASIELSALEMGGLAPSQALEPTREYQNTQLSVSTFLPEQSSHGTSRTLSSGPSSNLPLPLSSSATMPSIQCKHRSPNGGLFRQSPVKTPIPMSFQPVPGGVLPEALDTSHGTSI
Assay: co-IP; transfected HEK cells; 1 mg total protein in NP-40 buffer (1% Igepal, 50 mM Tris pH 7.4, 150 mM NaCl, 2 mM EDTA); overnight at 4°C with mouse anti-HA or mouse anti-Myc antibody, mouse IgG as negative control; protein G-agarose; washes with 200 mM NaCl; western blot
Settings: remark: other sources report otherwise

- binding: binds
B1: Myc-Cbln4 (cerebellin-4), Q8BME9 25-198 (ligand)
chain: QNDTEPIVLEGKCLVVCDSNPATDSKGSSSSPLGISVRAANSKVAFSAVRSTNHEPSEMSNKTRIIYFDQILVNVGNFFTLESVFVAPRKGIYSFSFHVIKVYQSQTIQVNLMLNGKPVISAFAGDKDVTREAATNGVLLYLDKEDKVYLKLEKGNLLGGWQYSTFSGFLVFPL
